The values that follow come from article PMC3431311.

Protein sequences, listed by entry. Tags and fused reporters are not part of them.
UniProt P29341: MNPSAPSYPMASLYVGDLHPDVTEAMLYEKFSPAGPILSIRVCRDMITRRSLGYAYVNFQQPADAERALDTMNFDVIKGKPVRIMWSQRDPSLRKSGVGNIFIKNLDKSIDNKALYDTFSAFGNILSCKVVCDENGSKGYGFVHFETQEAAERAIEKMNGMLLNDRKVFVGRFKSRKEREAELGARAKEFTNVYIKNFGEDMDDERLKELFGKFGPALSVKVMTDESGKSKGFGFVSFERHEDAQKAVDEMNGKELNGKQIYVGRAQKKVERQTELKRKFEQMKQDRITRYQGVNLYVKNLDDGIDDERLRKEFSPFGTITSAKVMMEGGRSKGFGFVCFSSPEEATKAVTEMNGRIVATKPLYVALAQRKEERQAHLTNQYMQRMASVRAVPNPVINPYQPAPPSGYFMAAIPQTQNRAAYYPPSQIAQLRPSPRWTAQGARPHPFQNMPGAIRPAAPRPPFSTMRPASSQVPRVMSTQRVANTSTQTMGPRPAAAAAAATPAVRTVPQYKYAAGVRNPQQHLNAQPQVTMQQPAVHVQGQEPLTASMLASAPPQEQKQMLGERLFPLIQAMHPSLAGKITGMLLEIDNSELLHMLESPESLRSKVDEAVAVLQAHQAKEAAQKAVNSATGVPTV

Results are given in words; binding and its absence hold for the method and conditions named. Binding seen in cells or lysates may run through a third protein. Some binding calls cover weakened binding; strength is not graded here.

The target in assay [1] is T1, wild-type ATXN2 (Ataxin-2), murine (mouse (endogenous in cerebellum)) (UniProt O70305).
T1 sequence: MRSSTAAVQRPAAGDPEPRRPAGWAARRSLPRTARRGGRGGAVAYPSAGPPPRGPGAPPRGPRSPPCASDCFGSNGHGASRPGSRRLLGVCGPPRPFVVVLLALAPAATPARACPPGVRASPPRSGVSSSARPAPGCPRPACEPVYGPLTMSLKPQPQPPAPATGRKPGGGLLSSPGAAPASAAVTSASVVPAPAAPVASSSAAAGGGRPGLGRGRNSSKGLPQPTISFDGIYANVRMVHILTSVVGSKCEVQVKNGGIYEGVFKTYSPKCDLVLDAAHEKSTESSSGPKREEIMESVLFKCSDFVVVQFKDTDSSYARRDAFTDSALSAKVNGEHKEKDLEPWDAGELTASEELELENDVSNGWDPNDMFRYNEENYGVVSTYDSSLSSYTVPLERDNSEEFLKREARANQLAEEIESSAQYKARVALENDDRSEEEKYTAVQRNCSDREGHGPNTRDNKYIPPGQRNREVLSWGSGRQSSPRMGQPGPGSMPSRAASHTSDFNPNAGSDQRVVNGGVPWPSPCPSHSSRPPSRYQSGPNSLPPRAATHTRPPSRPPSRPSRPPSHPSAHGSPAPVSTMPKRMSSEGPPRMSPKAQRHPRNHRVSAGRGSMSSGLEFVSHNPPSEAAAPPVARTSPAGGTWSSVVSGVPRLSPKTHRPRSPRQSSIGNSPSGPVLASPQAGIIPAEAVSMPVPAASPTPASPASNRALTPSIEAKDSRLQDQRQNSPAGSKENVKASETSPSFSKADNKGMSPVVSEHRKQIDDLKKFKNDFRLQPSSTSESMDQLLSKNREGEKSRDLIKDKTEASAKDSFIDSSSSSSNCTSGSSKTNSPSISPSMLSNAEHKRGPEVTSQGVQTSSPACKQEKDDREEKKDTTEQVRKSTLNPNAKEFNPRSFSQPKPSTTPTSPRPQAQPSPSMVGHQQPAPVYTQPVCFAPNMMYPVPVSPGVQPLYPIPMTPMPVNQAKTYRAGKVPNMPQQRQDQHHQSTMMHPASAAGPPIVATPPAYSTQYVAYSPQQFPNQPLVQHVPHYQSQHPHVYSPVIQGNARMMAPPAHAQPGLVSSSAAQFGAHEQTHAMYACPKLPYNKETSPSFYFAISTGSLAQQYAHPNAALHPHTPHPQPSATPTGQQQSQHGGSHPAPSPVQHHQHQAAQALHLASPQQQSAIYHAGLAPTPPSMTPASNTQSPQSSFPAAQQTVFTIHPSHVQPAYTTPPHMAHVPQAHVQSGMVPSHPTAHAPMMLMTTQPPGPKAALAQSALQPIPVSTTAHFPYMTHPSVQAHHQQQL
Description: co-IP; ATXN2 immunoprecipitated with anti-ATXN2 antibody and Protein A/G-agarose from 200 ug soluble proteins of cerebellum of 6 months old wild-type, CAG42 and ATXN2-knock-out mice (lysis buffer 10 mM HEPES, 10 mM KCl, 5 mM MgCl2, 0.1% Igepal CA-630); PABPC1 detected by immunoblot. Background: A western blot detects proteins with antibodies after separation by electrophoresis.

In assay [2] the target is Q42-ATXN2 (expanded ATXN2 of the Atxn2-CAG42-knock-in mouse) (mouse (endogenous in cerebellum)) (UniProt O70305). The assay is described as above.

Regarding “poly(A)-binding protein PABPC1, murine (from UniProt P29341 1-636)”, the binding result in assay [1] and in assay [2] was “binds” in each case.
